Experiment: Silver nitrate test for immobilization of trihydroxyphenyl compound on oxidized polymeric substrates (Examples 16-20)
Details: H2O2/HCl-oxidized PI, PC and PS substrates; 50 mM silver nitrate, about 60 hours

Colour change of treated substrates in silver nitrate (deposition of silver metal), darkened in color:
trihydroxybenzaldehyde
Oc1ccc(O)c(O)c1 [1,2,4-benzenetriol]
Oc1cc(O)cc(O)c1 [phloroglucinol]
O=C(O)c1cc(O)c(O)c(O)c1 [gallic acid]
Oc1cccc(O)c1O [pyrogallol]
